Experimental data as given in US20120020965A1.
No constants are given. Whether binding was seen depends on the method and setting. Some binding calls cover weakened binding; strength is not graded here. Where a sequence is shown, tags or fusion partners need not be part of it.

Experiments:
human CD180 (human) [1] = target: T1, human CD180 (human) (UniProt Q99467); experiment: binding to human B cells
T1 sequence (looked up): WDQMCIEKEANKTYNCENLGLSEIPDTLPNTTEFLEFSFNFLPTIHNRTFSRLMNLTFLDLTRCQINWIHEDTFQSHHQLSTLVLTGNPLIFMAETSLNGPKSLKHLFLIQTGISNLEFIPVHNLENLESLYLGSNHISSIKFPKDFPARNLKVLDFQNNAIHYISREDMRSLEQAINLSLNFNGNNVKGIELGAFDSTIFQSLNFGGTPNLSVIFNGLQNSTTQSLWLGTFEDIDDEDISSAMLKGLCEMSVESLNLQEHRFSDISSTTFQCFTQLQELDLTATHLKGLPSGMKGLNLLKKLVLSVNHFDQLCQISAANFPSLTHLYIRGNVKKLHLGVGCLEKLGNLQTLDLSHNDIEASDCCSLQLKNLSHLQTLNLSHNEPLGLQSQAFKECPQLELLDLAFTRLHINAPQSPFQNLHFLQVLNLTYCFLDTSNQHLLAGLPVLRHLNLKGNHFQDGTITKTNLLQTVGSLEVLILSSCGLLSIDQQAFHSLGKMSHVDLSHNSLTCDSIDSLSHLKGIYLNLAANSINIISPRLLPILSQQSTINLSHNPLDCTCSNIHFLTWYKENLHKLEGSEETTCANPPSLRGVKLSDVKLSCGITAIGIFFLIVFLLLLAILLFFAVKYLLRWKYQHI

human CD180 (human) [2] = target: T1, human CD180 (human); experiment: binding to human B cells (FIG. 8)
human CD180 (human) [3] = target: T1, human CD180 (human); experiment: binding to an immortalized human B cell line (FIG. 8)

Measured: binding

B1: G28-8 scFv-Fc (CD180 specific scFv-Fc constructed from the cloned variable regions of mAb G28-8, altered human IgG1 Fc with P238S, P331S, K322S) (Fc fusion)
scFv: DIQMTQSPASLSASVGETVTITCRASEKIYSYLAWYQQKQGKSPQLLVYNAKTLAEGVPSRFSVSGSGTQFSLRINSLQPEDFGTYYCQHHFGSPRTFGGGTKLEIKDLGGGGSGGGGSGGGGSGGGGSTGEVQLQQSGPELVKPGASMKISCKASGYSFTGYTMNWVKQSHGKTLEWIGLINPYNGVTSYNQKFKDKATLTVDKSSSTAYMELLSLTSEDSAIYYCARDYNYDYFDYWGQGTTLTVSSDLEPKSSDKTHTCPPCPAPELLGGSSVFLFPPKPKDTLMISRTPEVTCVVVDVSQEDPEVQFNWYVDGMEVHNAKTKPREEQFNSTFRVVSVLTVVHQDWLNGKEYKCKVSNKALPASIEKTISKTKGQPREPQVYTLPPSREEMTKNQVSLTCLVKGFYPSDIAVEWESNGQPENNYNTTPPVLDSDGSFSLYSKLTVDKSRWQQGNVFSCSVMHEALHNHYTQKSLSLSPGK
binds: all assays above
